This passage reports binding results from PMC5882894.

By UniProt entry, the sequences of proteins in these tests, tags left out. Where a name states a change or a piece, a line headed by the entry shows the natural chain unless it says otherwise.
UniProt P11275: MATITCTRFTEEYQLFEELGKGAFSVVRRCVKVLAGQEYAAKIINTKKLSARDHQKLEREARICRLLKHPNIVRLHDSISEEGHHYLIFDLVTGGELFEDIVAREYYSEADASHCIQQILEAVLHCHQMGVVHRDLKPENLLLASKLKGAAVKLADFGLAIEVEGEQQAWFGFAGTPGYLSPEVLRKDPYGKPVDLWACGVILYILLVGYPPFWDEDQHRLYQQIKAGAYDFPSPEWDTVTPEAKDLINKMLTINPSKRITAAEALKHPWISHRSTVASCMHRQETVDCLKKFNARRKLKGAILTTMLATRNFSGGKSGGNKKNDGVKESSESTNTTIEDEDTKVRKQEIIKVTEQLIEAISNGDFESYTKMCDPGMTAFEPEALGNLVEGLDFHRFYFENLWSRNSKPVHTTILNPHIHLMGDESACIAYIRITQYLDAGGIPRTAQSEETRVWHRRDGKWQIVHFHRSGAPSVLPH
UniProt P08413: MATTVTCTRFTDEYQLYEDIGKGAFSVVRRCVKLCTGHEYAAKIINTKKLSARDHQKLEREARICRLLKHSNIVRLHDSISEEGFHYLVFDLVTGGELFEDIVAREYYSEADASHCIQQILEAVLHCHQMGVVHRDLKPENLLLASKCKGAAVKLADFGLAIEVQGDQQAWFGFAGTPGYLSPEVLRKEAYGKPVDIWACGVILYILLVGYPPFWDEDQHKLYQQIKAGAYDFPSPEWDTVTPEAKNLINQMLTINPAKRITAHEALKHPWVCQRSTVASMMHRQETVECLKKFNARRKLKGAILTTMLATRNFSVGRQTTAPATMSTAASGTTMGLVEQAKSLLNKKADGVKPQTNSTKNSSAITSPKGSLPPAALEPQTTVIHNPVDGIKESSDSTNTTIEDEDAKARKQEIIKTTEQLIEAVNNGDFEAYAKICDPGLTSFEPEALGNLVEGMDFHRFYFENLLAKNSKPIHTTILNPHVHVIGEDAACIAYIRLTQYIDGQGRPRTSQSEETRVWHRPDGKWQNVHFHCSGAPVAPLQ

These are yes or no findings as the source states them, for the method shown. Binding seen in cells or lysates may run through a third protein. Binding can be weak; no strength is given.

For the experiment, the target named is mCherry-labelled CaMKIIα hub domain (UniProt P11275). Briefly: FRET or BRET; live Cos-7 cells co-transfected with mCherry and GFP expression vectors (4:1), imaged 24 h later; corrected FRET (FRETC) divided by donor intensity; cytoplasm and nucleus.

With “full-length GFP-CaMKIIβ (Cos-7) (from UniProt P08413 1-542) (enzyme)”, the binding result was “binds”.
